Values quoted from earlier work in patent US20220175648A1, “TOPICAL FORMULATIONS WITH LIPID-BASED CARRIERS” (KATE ROSE LLC, priority 2020, published 2022).
Some entries share one result that the patent states for a list of compounds. For at least one compound, name, drawing or mass did not settle the structure.

Conditions: fold more than alpha-tocopherol

CC(C)=CCC/C(C)=C/CC/C(C)=C/CC[C@]1(C)CCc2cc(O)cc(C)c2O1 [Delta-tocotrienol, delta-tocotrienol]
antioxidant activity versus alpha-tocopherol: 40-60 times
